Here are results for two compounds from ChEMBL document CHEMBL2163215, “Mitigating hERG Inhibition: Design of Orally Bioavailable CCR5 Antagonists as Potent Inhibitors of R5 HIV-1 Replication” (ACS Med Chem Lett, 2012).

This data set can be described thus: Toxicity in rat administered for 7 days. The settings on record: in vivo.

Some results are limits rather than exact numbers.

Broadly, the NOAEL is the highest tested level that showed no adverse finding. `CONC(=O)N(Cc1ccsc1)C1CCN([C@H](C)CCNC(=O)c2c(C)cc(Cl)nc2C)CC1`: the NOAEL at 168 h is at least 400 mg/kg.

In the case of `COCC(=O)N(Cc1ccsc1)C1CCN([C@H](C)CCNC(=O)c2c(C)cc(Cl)nc2C)CC1`, the NOAEL at 168 h was at least 400 mg/kg.
